Here are results for one molecule from PMC12375214.

Assay [1] has as its target T1, GCSH, endogenous in TCMK-1 cells (mouse (endogenous in TCMK-1)) (UniProt Q91WK5).
T1 sequence: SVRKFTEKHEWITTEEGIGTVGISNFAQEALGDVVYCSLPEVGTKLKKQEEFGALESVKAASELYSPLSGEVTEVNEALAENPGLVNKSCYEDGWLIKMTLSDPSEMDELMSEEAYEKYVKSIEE
Put plainly: co-IP; TCMK-1 cell lysate, control cells; anti-GCSH antibody 4 h at 4 °C, protein A/G magnetic beads overnight, Western blot.

The target of assay [2] is T1, GCSH, endogenous in TCMK-1 cells (mouse (endogenous in TCMK-1)). As to the kind of experiment: condition: only cells treated with FeCl2 (100 μM, 24 h); co-IP; TCMK-1 cells treated with FeCl2 (100 μM, 24 h); anti-GCSH antibody 4 h at 4 °C, protein A/G magnetic beads overnight, Western blot.

Results are given in words; binding and its absence hold for the method and conditions named. Binding seen in cells or lysates may run through a third protein. Some binding calls cover weakened binding; strength is not graded here.

B1: lipoic acid synthase (LIAS), endogenous in TCMK-1 cells (enzyme, UniProt Q99M04 27-373)
chain: LSSLPDKKKEFLHNGPDLQDFVSGDLADKSTWDEYKGNLKRQKGERLRLPPWLKTKIPMGKNYNKLKNTLRNLSLHTVCEEARCPNIGECWGGGEYATATATIMLMGDTCTRGCRFCSVKTARNPPPLDANEPDNTAKAIAEWGLDYVVLTSVDRDDVADGGAEHIAKTVSCLKERNPKILVECLTPDFRGDLRAVEKVALSGLDVYAHNVETVPELQRKVRDPRANFDQSLRVLRHAKEVQPDVVSKTSIMLGLGETDEQVYATLKALRAADVDCLTLGQYMQPTKRHLKVEEYVTPEKFKYWEKVGNELGFLYTASGPLVRSSYKAGEFFLKNLVARRKTKASKV
B1: the binding result in assay [1] is on record as “binds”; in assay [2], “no binding”.
